From US20210024645A1 (HANGZHOU SUMGEN BIOTECH, published 2021)
Residue numbers refer to the chain shown, from its start. Results are given in words; binding and its absence hold for the method and conditions named. Some binding calls cover weakened binding; strength is not graded here.

The chains behind the UniProt entries cited, without tags or fusion partners. Residues count along the entry.
UniProt P28907, residues 43-300: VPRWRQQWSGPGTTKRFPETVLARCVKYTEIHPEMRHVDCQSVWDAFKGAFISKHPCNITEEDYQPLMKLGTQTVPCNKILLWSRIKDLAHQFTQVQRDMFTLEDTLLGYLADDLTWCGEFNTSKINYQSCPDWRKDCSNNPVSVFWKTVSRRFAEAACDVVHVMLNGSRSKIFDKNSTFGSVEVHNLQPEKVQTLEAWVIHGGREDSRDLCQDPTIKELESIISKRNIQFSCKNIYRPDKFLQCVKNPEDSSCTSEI

B1: SG003M2 (antibody, human IgG1, kappa, V domains shown)
VH: QVQLLESGGGLVQPGGSLKLSCVASGFDFSLYWMNWVRQAPGKGLEWIGKISPNSSTINYSPSLKDKFFISRDNAKNTLYLQMTKVRSEDTALYYCARLYIASGGFDYWGQGTTLTVSS
VL: EIVMTQSPASLSASLGQRATISCRASSSVSSSAYSYVHWYQQKSGQPPKLLIYLASDLQSGVPARFSGSGSGTDFTLTIHPVESEDVATYYCHHSRELPYSFGSGTKLEIKR
B2: SG003M3 (antibody, human IgG1, kappa, V domains shown)
VH: B1 VH with N54D, T57S, I58L, S61T, L64V, Y100W, S103T, F106Y, D107N
VL: B1 VL with S27N, S31T, Y34F, D57N, Q59E, L98V, Y100F, S101T

What was measured:
CD38 antigen [1] = biological target: CD38 antigen (UniProt P28907); experiment: method not clearly stated (refers to Example 4; FIG. 9)
CD38 antigen [2] = biological target: CD38 antigen (UniProt P28907); experiment: binding curve with axis Absorbance (OD450nm), CD38 antigen

| Binder | binding (CD38 antigen [1]) | binding (CD38 antigen [2]) |
| --- | --- | --- |
| B1 | binds | binds |
| B2 | binds | binds |
